Measured values taken from publication doi:10.1101/2023.04.28.538690.

Tests used:
[1] = biological target: SEC N-terminal tetratricopeptide repeats (TPRs 1-13), yeast two-hybrid bait (BD) (Arabidopsis thaliana); experiment: two-hybrid
[2] = biological target: SPY N-terminal tetratricopeptide repeats (TPRs 1-11), yeast two-hybrid bait (BD) (Arabidopsis thaliana); experiment: two-hybrid

- binding [1]: binds
- binding [2]: binds
B1: SPATULA (SPT), full-length, yeast two-hybrid prey (AD) (protein, UniProt Q9FUA4 1-373)
chain: MISQREEREEKKQRVMGDKKLISSSSSSSVYDTRINHHLHHPPSSSDEISQFLRHIFDRSSPLPSYYSPATTTTTASLIGVHGSGDPHADNSRSLVSHHPPSDSVLMSKRVGDFSEVLIGGGSGSAAACFGFSGGGNNNNVQGNSSGTRVSSSSVGASGNETDEYDCESEEGGEAVVDEAPSSKSGPSSRSSSKRCRAAEVHNLSEKRRRSRINEKMKALQSLIPNSNKTDKASMLDEAIEYLKQLQLQVQMLTMRNGINLHPLCLPGTTLHPLQLSQIRPPEATNDPLLNHTNQFASTSNAPEMINTVASSYALEPSIRSHFGPFPLLTSPVEMSREGGLTHPRLNIGHSNANITGEQALFDGQPDLKDRIT

No constants are given. Whether binding was seen depends on the method and setting. A result given as binding can be weak or reduced; the word gives no strength. Sequences can lack the tags named with a protein.
